We go through 55 compounds from PubChem BioAssay AID1487 (National Center for Advancing Translational Sciences (NCATS), 2009).

“And” between values parts separate entries of the source, which are not always exact repeats. Equal values may be shown once. The list shows a part of the results. These are further read-outs of the screen, such as a control signal, another cell line or another target. No call is given for them. The list favours compounds with an active or inconclusive main result. Potencies come from curve fits of mixed quality, noted in brackets.

The nature of the test: qHTS Assay for Modulators of Lamin A Splicing. As to conditions: HeLa LMNA splicing GFP/RFP minigene ratio, 48 h. The procedure, abridged:
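S3 HeLa stable clones carrying a lamin A-EGFP splicing minigene plus DsRed2 were seeded at 600 cells/well in Opti-MEM with 2% FBS, pin-dosed and incubated 48 h at 37°C. Acumen cytometry (488 nm) gave the GFP/RFP total-intensity ratio.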
In general terms: Quantitative high-throughput screening tests each substance at several concentrations.

The mark [1] stands for this setting: measured here: GFP splicing reporter channel.
[2] abbreviates: measured here: RFP viability control channel.

The AC50 is the concentration giving half of the maximal activity seen. `Cc1ccc(-c2csc3nc[nH]c(=O)c23)cc1`: the half-maximal activity concentration (AC50) under setting [1] is 0.0355 µM [falling, full curve, poor fit]. Turning to `CCOC(=O)C(C)Oc1cccc2c(=O)n(CC(=O)NCc3ccco3)ccc12` (stereo unspecified), the AC50 under setting [2] was 1.58 µM [rising, partial curve]. Take `COc1cc(C(=O)N/N=C/c2cc([N+](=O)[O-])cs2)cc(OC)c1OC`: under setting [2], the AC50 is 4.47 µM [rising, full curve]. As for `C#CCOC(=O)C[N+](C)(C)C/C=C/c1ccccc1`, under setting [1], the AC50 was 0.282 µM [rising, full curve, poor fit]. Turning to `Cc1ccc(Oc2ccc(S(=O)(=O)N3CCOCC3)cc2C(N)=O)c(-n2nc3ccccc3n2)c1`, the AC50 was 3.55 µM [falling, full curve] under setting [1] and 5.01 µM [falling, full curve] under setting [2]. Regarding `COCCCNc1oc(-c2ccc(COc3ccccc3C)o2)nc1C#N`, the AC50 was 22.4 µM [rising, partial curve] under setting [1] and 28.2 µM [rising, single point] under setting [2]. In the case of `Cc1cc(C)nc(Sc2ccc([N+](=O)[O-])cc2[N+](=O)[O-])n1`, the AC50 under setting [1] was 35.5 µM [falling, single point]. Turning to `Cc1ccc(-c2noc(CCC(=O)NC3CCN(Cc4ccccc4)CC3)n2)cc1`, under setting [1], the AC50 is 10 µM [rising, partial curve, poor fit].

Take `O=C(CSc1nc2c([nH]c3ccccc32)c(=O)n1-c1ccccc1)Nc1ccccc1C(F)(F)F`: the AC50 runs as follows: under setting [1], 35.5 µM [falling, single point]; under setting [2], 35.5 µM [falling, single point]. As to `COC(=O)c1c(-c2cccc(OC)c2)csc1N`, the AC50 was 14.1 µM [rising, single point] under setting [1] and 31.6 µM [rising, single point] under setting [2]. Turning to `CCOC(=O)C1C(=O)OC(C)(C)C1C(C)C(=O)c1ccc(C)cc1C` (stereo unspecified), the AC50 is 35.5 µM [falling, single point] under setting [1] and 35.5 µM [falling, partial curve, poor fit] under setting [2]. Take `NS(=O)(=O)c1ccc(NCc2ccccc2OCc2ccc(F)cc2)cc1`: the half-maximal activity concentration (AC50) under setting [1] was 2.24 µM [rising, partial curve] and the concentration at half-maximal activity (AC50) under setting [2] was 2.51 µM [rising, full curve]. `Cc1ccc(OCC(O)Cn2c3ccccc3c3ccccc32)cc1` (stereo unspecified): the half-maximal activity concentration (AC50) by setting is: under setting [1], 35.5 µM [falling, single point]; under setting [2], 35.5 µM [falling, single point].

As to `Fc1ccc2nc(-c3ccccc3)nc(SCc3nnc(-c4ccccc4)o3)c2c1`, the half-maximal activity concentration (AC50) under setting [1] was 5.62 µM [rising, single point].

In the case of `COc1ccc2c(c1)CC(C(=O)Nc1c(C)cc(C)cc1C)CO2` (stereo unspecified), the AC50 under setting [2] was 14.1 µM [rising, single point]. As to `O=C(CSC1CC(=O)N(c2ccc(C(=O)O)cc2)C1=O)Nc1ccc(Cl)cc1` (stereo unspecified), the concentration at half-maximal activity (AC50) is 0.00891 µM [rising, full curve] under setting [1] and 0.0126 µM [rising, full curve] under setting [2]. Regarding `CN1C(=O)C(c2nnc(Nc3cccc4ccccc34)s2)C2CC1(C)Oc1ccccc12` (stereo unspecified), the AC50 was 22.4 µM [rising, single point] under setting [1] and 22.4 µM [rising, partial curve] under setting [2]. In the case of `O=C(NNC1=NS(=O)(=O)c2ccccc21)c1ccccc1Cl`, under setting [1], the AC50 is 0.02 µM [rising, partial curve, poor fit]. Take `COc1cccc(NC(=O)CSC2=Nc3ccccc3C3=NC(CCC(=O)NC4CCCCC4)C(=O)N23)c1` (stereo unspecified): the half-maximal activity concentration (AC50) under setting [1] was 0.158 µM [falling, full curve, poor fit].

For the compound `COc1ccc(OC)c(Nc2nc(-c3sc(NC(=O)C(C)(C)C)nc3C)cs2)c1`, the AC50 under setting [2] is 14.1 µM [rising, single point]. Still for that read-out and setting: in the case of `CCCCOc1ccc(C(=O)N/N=C/c2ccc(OCCN3CCCCC3)c(OC)c2)cc1` it was 35.5 µM [rising, single point]. As to `COc1ccccc1NC(=O)CCNC(=O)Cn1ccc2ccccc2c1=O`, the concentration at half-maximal activity (AC50) under setting [2] is 0.891 µM [falling, partial curve]. Consider `COc1cc2c(cc1OC)C(c1ccc(-c3ccc(Cl)c(Cl)c3)o1)=NCC2`, for which the concentration at half-maximal activity (AC50) by setting is: under setting [1], 4.47 µM [rising, single point]; under setting [2], 14.1 µM [falling, single point]. Regarding `CCCN(CCC)S(=O)(=O)c1ccc(C(=O)N2CCC(=O)c3ccccc32)cc1`, the concentration at half-maximal activity (AC50) by setting is: under setting [1], 10 µM [rising, partial curve]; under setting [2], 14.1 µM [rising, single point]. As for `O=C(Nc1nnc(-c2ccc3c(c2)CCCC3)o1)C1COc2ccccc2O1` (stereo unspecified), the AC50 under setting [2] was 35.5 µM [rising, single point]. Turning to `Brc1cccc(-c2nnc(SCc3nc4ccccc4[nH]3)o2)c1`, the AC50 is 7.94 µM [rising, partial curve] under setting [1] and 11.2 µM [rising, partial curve] under setting [2]. In the case of `O=S(=O)(NCCc1ccccc1F)c1cccc(S(=O)(=O)N2CCOCC2)c1`, under setting [2], the concentration at half-maximal activity (AC50) is 15.8 µM [rising, single point]. For `S=c1[nH]nc(COc2ccccc2)n1/N=C/C(Cl)=C/c1ccccc1`, the AC50 is 0.0316 µM [falling, single point] under setting [1] and 0.0316 µM [falling, single point] under setting [2]. For `O=[N+]([O-])c1cccc2ccc(/C=C/c3ccc(C(F)(F)F)cc3)nc12`, the half-maximal activity concentration (AC50) was 12.6 µM [rising, single point] under setting [1] and 25.1 µM [rising, partial curve] under setting [2]. For `CN(C)c1nc(NCc2ccccc2)nc(SCC(=O)Nc2ccccc2Cl)n1`, the AC50 under setting [1] was 11.2 µM [rising, single point] and the AC50 under setting [2] was 20 µM [rising, partial curve]. With `c1ccc(CNc2ccnc(-c3cccnc3)n2)cc1`, the AC50 under setting [1] is 35.5 µM [falling, single point].

Regarding `CCc1ccc(CCC(=O)Nc2ccccc2C(=O)O)o1`, the AC50 under setting [1] is 15.8 µM [falling, single point]. For `[O-]/C(=C(\C(=S)NCCN1CCOCC1)[n+]1ccccc1)c1ccc(Cl)s1`, the AC50 under setting [2] is 35.5 µM [rising, partial curve, poor fit]. In the case of `O=C(Oc1c(CN2CCOCC2)cc(Cl)c2cccnc12)c1ccccc1Cl`, the AC50 reads like this: under setting [1], 5.62 µM [falling, full curve]; under setting [2], 5.01 µM [falling, full curve]. Turning to `CC(=Nc1ccc(O)cc1)c1sc2ccccc2c1O`, the AC50 under setting [2] was 14.1 µM [rising, partial curve].

With `COc1ccc(C(=O)COC(=O)c2ccc(N(C)C)cc2)cc1`, under setting [1], the AC50 is 0.0126 µM [rising, full curve, poor fit].

On to `COc1ccc(C(=O)Nc2ccc3c(c2)CCCN3S(=O)(=O)c2ccc(C)cc2)cc1`, for which the concentration at half-maximal activity (AC50) under setting [1] was 5.62 µM [rising, partial curve, poor fit]. As for `COc1cc2cc3c(N)c(C(=O)NCc4ccco4)sc3nc2cc1OC`, the AC50 under setting [2] was 17.8 µM [rising, partial curve, poor fit]. Turning to `CC(C)c1ccc(C(=O)Nc2ccc(N3CCOCC3)cc2)cc1`, the AC50 is 35.5 µM [rising, single point] under setting [1] and 35.5 µM [rising, single point] under setting [2].

With `O=C(Nc1cccc(F)c1)c1sc(Cl)nc1-c1ccccc1`, the AC50 under setting [2] is 35.5 µM [rising, single point]. For `O=C(Cn1nc(-c2ccccc2)ccc1=O)Nc1ccc(N2CCN(C(=O)c3cccs3)CC2)cc1`, the concentration at half-maximal activity (AC50) is 1.41 µM [falling, partial curve] under setting [1] and 3.55 µM [falling, partial curve, poor fit] under setting [2].

With `N#Cc1c2ccc(O)cc2n2ccccc12`, the AC50 under setting [1] was 5.01 µM [falling, full curve, poor fit]. For `Cc1cccc(C)c1NC(=O)N1CCN(c2nc3ccccc3s2)CC1`, under setting [2], the AC50 is 8.91 µM [rising, partial curve]. `O=C(c1noc2c1CCCC2)N1CCOCC1`: under setting [2], the AC50 is 0.631 µM [rising, full curve, poor fit].

For `CC1=C(\C=C/C(C)=C/C=C\C(C)=C\C(=O)O)C(C)(C)CCC1`, the half-maximal activity concentration (AC50) is 1.78 µM [falling, partial curve, poor fit] and 251 nM [falling, full curve] under setting [1]; 0.282 µM [falling, full curve, poor fit] under setting [2].

Turning to `CCOc1ccc(C(=O)N/N=C/c2cc([N+](=O)[O-])cs2)cc1`, the AC50 under setting [1] was 0.0224 µM [rising, full curve, poor fit] and the AC50 under setting [2] is 0.02 µM [rising, full curve, poor fit]. In the case of `CCCn1c(N2CCN(C(=O)Nc3ccccc3)CC2)nc2ccccc21`, under setting [1], the AC50 is 0.02 µM [rising, full curve, poor fit]. As for `COCc1cc(=O)[nH]c(Nc2nc3ccccc3o2)n1`, the AC50 under setting [2] was 25.1 µM [rising, single point]. As for `COC(=O)c1[nH]c2cc(OC)c(OC)cc2c1NC(=O)c1cccc(OC)c1`, the AC50 under setting [2] was 0.355 µM [falling, partial curve]. Consider `CCOc1ccc(CN(C(=O)c2cc3ccccc3oc2=O)C2CC2)cc1`, for which the concentration at half-maximal activity (AC50) under setting [2] was 14.1 µM [rising, single point]. For the compound `Fc1ccc(Cn2ccc(-c3cnc(-c4ccccc4)s3)n2)cc1`, the half-maximal activity concentration (AC50) was 20 µM [rising, partial curve, poor fit] under setting [1] and 20 µM [rising, single point] under setting [2]. `CC1(c2ccccc2Cl)NC(=O)N(CC(=O)NCCC2=CCCCC2)C1=O` (stereo unspecified): under setting [2], the AC50 is 11.2 µM [rising, partial curve, poor fit]. On the same count and under the same terms, in the case of `O=S1(=O)C=C(Sc2nc3cc(Cl)ccc3o2)c2ccccc21` it was 5.62 µM [rising, single point]. In the case of `COc1ccc(S(=O)(=O)N2CCN(C(=O)c3cc(-c4ccc(Br)cc4)n[nH]3)CC2)cc1OC`, the AC50 under setting [1] was 0.562 µM [falling, full curve]. On to `CN(c1ccccc1C(=O)NCc1ccccn1)S(C)(=O)=O`, for which the half-maximal activity concentration (AC50) under setting [1] was 11.2 µM [falling, partial curve].
